This is one part of the list. The data scatter; read single values as rough.
Compound: ClCC(=O)N[C@H]1CCCc2ccccc12
Assay: log2 mean competition ratio of IA-DTB cysteine labelling (DMSO/compound) (log2 ratio); higher = stronger cysteine engagement by compound
Settings: 50 µM; treatment time: 4 h; cell line lysate: HEK293T
Method: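 IA-DTB competitive cysteine chemoproteomics in HEK293T RIPA lysate. Lysates were treated with compound 29 or 30 at 50 or 200 µM for 4 h, then IA-DTB (500 µM, 1 h), trypsin-digested, NeutrAvidin-enriched and analysed by diaPASEF. Competition ratio = intensity DMSO / intensity compound (n=4 treated, n=64 DMSO); binding: mean log2 CR ≥ 1 and p ≤ 0.05 plus QC filters. Target is the cysteine site.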

Sequences of proteins named here, by UniProt entry; tags and fusion partners are left off. A change or cut given only in a name is not applied to a line headed by its entry. Residues count along the entry.
UniProt Q7LBC6: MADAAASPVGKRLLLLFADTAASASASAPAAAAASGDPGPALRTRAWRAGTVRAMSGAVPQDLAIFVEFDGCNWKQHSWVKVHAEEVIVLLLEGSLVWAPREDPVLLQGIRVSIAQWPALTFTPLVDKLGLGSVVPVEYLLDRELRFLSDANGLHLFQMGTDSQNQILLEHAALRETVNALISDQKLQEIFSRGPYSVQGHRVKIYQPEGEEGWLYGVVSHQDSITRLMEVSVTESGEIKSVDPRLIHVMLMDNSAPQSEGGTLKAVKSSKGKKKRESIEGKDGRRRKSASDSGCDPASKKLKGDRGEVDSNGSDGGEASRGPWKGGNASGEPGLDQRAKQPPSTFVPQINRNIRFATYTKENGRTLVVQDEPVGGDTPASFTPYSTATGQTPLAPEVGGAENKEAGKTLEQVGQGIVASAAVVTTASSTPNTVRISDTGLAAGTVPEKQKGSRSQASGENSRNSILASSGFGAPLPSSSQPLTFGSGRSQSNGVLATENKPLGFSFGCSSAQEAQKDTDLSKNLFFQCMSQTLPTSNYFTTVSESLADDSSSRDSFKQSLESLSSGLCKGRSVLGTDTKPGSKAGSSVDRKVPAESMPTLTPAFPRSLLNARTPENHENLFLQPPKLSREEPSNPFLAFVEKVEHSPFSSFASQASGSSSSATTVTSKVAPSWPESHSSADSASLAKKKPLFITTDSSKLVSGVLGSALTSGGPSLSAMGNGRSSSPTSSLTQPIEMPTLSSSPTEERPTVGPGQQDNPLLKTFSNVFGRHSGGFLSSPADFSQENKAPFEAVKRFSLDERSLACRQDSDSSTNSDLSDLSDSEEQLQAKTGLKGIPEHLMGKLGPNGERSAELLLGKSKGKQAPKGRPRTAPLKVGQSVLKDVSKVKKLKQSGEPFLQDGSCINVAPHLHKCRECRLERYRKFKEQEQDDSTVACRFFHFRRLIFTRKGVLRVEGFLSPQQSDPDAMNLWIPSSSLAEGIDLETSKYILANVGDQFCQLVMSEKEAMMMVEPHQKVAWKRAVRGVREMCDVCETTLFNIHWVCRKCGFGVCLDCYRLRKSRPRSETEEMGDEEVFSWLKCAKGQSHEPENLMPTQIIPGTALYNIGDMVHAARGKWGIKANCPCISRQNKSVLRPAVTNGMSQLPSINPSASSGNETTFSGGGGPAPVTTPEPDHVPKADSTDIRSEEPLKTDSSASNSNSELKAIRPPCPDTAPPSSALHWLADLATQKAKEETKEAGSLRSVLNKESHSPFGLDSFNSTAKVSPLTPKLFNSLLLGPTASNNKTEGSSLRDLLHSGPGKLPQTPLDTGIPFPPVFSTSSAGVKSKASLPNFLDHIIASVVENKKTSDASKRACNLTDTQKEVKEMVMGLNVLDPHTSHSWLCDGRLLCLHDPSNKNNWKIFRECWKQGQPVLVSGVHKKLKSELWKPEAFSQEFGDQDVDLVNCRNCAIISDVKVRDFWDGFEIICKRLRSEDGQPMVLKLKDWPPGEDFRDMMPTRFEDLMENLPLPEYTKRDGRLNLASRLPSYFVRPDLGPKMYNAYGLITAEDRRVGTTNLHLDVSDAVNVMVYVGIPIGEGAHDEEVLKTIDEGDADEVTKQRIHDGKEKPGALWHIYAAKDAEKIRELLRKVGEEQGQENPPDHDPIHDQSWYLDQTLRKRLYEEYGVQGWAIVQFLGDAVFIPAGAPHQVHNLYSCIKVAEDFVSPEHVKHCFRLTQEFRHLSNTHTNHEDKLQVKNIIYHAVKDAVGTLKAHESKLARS
UniProt O15037: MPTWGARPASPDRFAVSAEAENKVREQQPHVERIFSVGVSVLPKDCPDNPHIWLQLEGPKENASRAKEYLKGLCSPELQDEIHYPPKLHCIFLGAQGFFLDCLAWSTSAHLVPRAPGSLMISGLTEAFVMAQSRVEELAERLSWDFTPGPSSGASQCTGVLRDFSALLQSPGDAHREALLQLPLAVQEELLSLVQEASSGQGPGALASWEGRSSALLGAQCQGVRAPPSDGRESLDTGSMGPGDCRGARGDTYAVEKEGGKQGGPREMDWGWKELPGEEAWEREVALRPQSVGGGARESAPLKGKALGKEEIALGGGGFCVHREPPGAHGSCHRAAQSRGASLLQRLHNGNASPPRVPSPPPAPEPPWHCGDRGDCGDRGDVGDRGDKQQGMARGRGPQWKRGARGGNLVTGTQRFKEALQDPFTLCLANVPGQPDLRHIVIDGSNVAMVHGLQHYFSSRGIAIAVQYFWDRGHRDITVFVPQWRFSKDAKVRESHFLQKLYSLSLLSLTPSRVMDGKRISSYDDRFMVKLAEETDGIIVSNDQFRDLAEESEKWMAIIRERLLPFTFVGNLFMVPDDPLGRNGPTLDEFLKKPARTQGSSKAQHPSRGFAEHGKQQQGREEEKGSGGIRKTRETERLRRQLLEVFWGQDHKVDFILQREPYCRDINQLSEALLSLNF
UniProt Q8N371: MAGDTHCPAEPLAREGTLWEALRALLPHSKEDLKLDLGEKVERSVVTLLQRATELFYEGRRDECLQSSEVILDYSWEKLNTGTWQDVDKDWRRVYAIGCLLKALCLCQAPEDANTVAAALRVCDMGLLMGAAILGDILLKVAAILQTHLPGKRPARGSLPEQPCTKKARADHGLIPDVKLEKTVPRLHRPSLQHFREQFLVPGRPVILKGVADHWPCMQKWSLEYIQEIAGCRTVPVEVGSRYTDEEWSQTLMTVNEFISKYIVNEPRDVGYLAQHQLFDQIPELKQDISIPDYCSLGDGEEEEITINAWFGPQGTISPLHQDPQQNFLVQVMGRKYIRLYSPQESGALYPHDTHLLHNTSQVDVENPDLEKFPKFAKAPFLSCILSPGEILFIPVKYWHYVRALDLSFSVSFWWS
UniProt Q9Y2K7: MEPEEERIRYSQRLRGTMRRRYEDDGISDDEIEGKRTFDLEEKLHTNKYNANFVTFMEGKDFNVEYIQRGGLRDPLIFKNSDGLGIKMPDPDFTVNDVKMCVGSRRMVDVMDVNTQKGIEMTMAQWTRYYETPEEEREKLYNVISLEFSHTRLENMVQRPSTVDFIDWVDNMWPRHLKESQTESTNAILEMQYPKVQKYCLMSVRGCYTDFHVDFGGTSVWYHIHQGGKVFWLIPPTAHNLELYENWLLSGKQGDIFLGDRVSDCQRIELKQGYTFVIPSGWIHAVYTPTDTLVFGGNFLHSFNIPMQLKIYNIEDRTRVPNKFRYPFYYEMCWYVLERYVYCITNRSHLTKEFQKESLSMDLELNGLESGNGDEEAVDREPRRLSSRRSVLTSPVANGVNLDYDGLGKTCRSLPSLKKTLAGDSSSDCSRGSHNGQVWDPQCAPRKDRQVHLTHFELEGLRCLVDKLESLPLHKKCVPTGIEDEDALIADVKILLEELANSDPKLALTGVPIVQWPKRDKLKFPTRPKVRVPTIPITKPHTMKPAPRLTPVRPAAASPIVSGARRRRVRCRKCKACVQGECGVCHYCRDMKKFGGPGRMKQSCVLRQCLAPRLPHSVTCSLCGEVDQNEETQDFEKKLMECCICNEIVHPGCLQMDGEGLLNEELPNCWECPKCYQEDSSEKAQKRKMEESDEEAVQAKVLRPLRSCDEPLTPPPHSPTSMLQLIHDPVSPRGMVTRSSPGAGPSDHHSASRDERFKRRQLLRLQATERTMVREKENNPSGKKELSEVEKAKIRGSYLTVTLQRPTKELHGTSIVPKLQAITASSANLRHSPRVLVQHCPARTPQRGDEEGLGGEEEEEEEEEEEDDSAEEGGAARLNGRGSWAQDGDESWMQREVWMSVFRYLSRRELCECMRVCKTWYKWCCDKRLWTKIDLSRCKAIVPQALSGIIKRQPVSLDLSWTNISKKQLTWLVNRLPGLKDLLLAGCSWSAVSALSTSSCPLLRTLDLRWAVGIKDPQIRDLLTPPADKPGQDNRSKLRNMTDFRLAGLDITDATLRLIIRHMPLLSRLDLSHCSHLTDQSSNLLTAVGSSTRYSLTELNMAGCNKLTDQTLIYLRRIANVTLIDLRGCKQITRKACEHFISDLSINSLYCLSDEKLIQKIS
UniProt Q9Y6Y0, 266-286: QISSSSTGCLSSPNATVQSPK
UniProt Q9Y4C1: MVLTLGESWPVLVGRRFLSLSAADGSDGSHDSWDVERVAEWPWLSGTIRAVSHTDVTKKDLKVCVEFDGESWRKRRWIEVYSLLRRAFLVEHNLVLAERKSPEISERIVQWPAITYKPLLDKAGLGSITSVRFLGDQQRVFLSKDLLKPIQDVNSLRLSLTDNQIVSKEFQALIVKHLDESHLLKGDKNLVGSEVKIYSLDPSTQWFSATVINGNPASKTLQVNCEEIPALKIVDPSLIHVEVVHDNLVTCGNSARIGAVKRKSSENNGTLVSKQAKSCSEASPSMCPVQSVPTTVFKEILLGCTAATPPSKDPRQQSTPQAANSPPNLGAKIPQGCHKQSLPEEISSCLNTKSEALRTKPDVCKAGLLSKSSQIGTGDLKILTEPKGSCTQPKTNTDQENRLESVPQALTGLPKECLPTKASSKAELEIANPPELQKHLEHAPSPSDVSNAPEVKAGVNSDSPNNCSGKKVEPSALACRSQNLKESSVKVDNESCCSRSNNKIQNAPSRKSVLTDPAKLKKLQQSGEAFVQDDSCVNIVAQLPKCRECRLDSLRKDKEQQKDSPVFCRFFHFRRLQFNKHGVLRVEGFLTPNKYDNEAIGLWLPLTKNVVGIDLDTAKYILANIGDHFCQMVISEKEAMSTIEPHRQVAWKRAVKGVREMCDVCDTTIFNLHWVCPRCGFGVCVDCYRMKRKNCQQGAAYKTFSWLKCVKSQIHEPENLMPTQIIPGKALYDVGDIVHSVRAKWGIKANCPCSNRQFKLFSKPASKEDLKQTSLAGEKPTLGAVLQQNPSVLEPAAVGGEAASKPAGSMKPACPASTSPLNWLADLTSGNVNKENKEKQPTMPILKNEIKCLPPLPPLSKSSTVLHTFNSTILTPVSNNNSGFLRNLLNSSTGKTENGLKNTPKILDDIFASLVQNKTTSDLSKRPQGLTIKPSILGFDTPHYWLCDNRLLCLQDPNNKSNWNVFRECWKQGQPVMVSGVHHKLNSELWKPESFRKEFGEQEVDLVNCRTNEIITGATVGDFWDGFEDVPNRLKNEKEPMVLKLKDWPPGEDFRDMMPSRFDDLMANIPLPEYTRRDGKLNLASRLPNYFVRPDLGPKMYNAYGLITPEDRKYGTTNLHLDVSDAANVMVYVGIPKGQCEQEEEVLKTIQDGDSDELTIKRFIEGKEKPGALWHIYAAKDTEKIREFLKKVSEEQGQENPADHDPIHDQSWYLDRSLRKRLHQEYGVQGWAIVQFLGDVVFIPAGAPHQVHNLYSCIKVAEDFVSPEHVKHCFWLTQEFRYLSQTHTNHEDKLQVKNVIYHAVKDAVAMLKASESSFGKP
UniProt P52732: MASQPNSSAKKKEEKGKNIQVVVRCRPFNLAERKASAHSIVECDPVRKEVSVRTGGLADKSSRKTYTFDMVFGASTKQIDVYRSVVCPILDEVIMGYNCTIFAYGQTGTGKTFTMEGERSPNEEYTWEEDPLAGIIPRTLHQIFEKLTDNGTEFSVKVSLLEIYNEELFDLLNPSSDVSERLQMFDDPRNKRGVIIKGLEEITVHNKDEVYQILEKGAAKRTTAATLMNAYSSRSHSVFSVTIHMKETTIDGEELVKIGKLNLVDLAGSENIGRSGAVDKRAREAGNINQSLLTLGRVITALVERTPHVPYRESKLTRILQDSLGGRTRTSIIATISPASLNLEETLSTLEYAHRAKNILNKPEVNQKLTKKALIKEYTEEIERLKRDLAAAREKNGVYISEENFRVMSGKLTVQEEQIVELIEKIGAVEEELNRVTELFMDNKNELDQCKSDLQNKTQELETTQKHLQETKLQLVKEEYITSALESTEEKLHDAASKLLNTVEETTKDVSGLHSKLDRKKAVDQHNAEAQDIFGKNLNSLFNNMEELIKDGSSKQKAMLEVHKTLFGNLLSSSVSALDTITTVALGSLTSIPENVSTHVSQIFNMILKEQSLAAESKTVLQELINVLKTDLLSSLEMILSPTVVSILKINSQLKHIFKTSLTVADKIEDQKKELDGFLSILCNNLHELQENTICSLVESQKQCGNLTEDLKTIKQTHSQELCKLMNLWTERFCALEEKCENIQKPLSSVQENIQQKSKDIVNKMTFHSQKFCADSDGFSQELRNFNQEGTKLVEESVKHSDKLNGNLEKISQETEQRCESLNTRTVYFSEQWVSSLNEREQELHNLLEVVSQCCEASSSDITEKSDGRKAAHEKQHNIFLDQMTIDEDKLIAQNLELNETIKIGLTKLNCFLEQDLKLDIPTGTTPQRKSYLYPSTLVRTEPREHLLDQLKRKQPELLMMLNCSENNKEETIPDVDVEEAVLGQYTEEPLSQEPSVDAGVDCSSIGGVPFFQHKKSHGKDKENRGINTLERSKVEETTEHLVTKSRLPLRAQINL

Target | log2 mean competition ratio
KDM3B C295 (UniProt Q7LBC6) | 0.000135
KHNYN C221 (UniProt O15037) | 0.194
KIF17 C872 | 0.477
KDM6B C1138 | -0.684
KIAA1107 C1071 | 0.025
KDM5A C1409 (UniProt P29375) | -0.0308
KIF14 C508 (UniProt Q15058) | 0.227
KIF16B C242 (UniProt Q96L93) | -0.196
KDM8 C7 (UniProt Q8N371) | -0.647
KDM2A C443 (UniProt Q9Y2K7) | 0.0329
IVNS1ABP C274 (UniProt Q9Y6Y0) | 0.431
KIAA1217 C726 (UniProt Q5T5P2) | -0.0279
KDM5C C305 (UniProt P41229) | -0.141
IVNS1ABP C143 (UniProt Q9Y6Y0) | 0.342
KHNYN C46 (UniProt O15037) | -0.489
KDM3A C1140 (UniProt Q9Y4C1) | -0.672
KCTD5 C28 (UniProt Q9NXV2) | 0.378
KIF11 C734 (UniProt P52732) | -0.00196
KDM3A C1009 (UniProt Q9Y4C1) | -0.0259
KIAA0100 C1055 (UniProt Q14667) | -0.216

Same assay, conditions: 200 µM; treatment time: 4 h; cell line lysate: HEK293T

Target | log2 mean competition ratio
KDM3B C295 (UniProt Q7LBC6) | 0.152
KHNYN C221 (UniProt O15037) | 0.178
JPH1 C101 (UniProt Q9HDC5) | 0.118
KIF17 C872 | 0.341
KDM6B C1138 | 0.278
KIAA1107 C1071 | -0.0485
KDM5A C1409 (UniProt P29375) | 0.39
KIF14 C508 (UniProt Q15058) | -0.22
KIF16B C242 (UniProt Q96L93) | -0.0644
KDM8 C7 (UniProt Q8N371) | -0.0954
KDM2A C443 (UniProt Q9Y2K7) | 0.196
IVNS1ABP C274 (UniProt Q9Y6Y0) | -0.175
KIAA1217 C726 (UniProt Q5T5P2) | 0.294
KDM5C C305 (UniProt P41229) | -0.137
IVNS1ABP C143 (UniProt Q9Y6Y0) | -0.0455
KHNYN C46 (UniProt O15037) | 0.112
KDM3A C1140 (UniProt Q9Y4C1) | -0.00863
KCTD5 C28 (UniProt Q9NXV2) | -0.116
KIF11 C734 (UniProt P52732) | -0.0938
KDM3A C1009 (UniProt Q9Y4C1) | 0.304
KIAA0100 C1055 (UniProt Q14667) | 0.226

Reference: the supplement of paper PMC11732987, “Enantioselective OTUD7B fragment discovery through chemoproteomics screening and high-throughput optimisation” (Communications Chemistry, 2025)
